{"sequences": {"note": "By UniProt entry, the sequences of proteins in these tests, tags left out.", "UniProt Q01844": "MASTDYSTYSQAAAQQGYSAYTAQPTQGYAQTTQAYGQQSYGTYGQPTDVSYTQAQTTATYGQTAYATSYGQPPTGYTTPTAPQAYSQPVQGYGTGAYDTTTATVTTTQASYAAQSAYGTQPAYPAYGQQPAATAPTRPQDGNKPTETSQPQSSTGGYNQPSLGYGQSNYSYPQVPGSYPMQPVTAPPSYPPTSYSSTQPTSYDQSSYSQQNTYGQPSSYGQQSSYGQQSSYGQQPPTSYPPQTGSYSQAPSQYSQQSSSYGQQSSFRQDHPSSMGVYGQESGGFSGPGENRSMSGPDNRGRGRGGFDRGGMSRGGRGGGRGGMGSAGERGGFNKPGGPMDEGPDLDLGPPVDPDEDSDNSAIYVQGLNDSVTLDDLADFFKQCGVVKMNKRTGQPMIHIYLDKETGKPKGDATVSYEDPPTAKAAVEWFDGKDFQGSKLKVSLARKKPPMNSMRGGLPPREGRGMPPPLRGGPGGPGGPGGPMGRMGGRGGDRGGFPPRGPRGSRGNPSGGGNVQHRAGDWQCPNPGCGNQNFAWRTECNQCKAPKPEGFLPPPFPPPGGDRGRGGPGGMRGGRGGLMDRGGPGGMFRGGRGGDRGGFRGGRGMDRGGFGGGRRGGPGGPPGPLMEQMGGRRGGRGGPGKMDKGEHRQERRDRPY"}, "source": "paper PMC6353870", "key": {"3xflag-EWSR1": {"target": "3xflag-EWSR1 (UniProt Q01844)", "assay": "co-IP; 3xflag proteins co-expressed with 3xmyc-USP19 in HEK293 cells for 48 h; interactor lysis buffer 2 (50 mM Tris/HCl, 50 mM NaCl, 1.5 mM MgCl2, 10% glycerol, 0.3% NP40, phosphatase inhibitors); anti-Flag antibody on Dynabeads ProteinG, 30 min at 4 °C; eluted with 3xFlag peptide; western blot"}, "3xflag-FLI1": {"target": "T1, 3xflag-FLI1 (UniProt Q01543)", "T1 sequence": "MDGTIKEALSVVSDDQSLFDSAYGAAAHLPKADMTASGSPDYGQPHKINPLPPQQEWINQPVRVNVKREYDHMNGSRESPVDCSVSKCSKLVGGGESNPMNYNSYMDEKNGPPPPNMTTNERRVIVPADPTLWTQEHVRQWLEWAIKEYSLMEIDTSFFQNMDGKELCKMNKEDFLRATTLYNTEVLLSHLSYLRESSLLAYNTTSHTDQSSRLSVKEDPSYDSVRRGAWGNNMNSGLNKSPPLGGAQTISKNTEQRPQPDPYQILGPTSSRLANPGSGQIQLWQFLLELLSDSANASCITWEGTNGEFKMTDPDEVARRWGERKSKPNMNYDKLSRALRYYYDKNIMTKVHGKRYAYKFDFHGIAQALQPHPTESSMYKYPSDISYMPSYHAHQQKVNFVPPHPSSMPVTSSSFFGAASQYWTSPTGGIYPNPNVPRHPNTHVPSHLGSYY", "assay": "co-IP; 3xflag proteins co-expressed with 3xmyc-USP19 in HEK293 cells for 48 h; interactor lysis buffer 2 (50 mM Tris/HCl, 50 mM NaCl, 1.5 mM MgCl2, 10% glycerol, 0.3% NP40, phosphatase inhibitors); anti-Flag antibody on Dynabeads ProteinG, 30 min at 4 °C; eluted with 3xFlag peptide; western blot"}}, "note": "No constants are given. Whether binding was seen depends on the method and setting. Binding seen in cells or lysates may run through a third protein. Some entries that bind do so weakly or less than the wild type. Where a sequence is shown, tags or fusion partners need not be part of it.", "data": [{"binder": "3xmyc-USP19 (ubiquitin specific protease 19) (enzyme, UniProt O94966 1-1318) MSGGASATGPRRGPPGLEDTTSKKKQKDRANQESKDGDPRKETGSRYVAQAGLEPLASGDPSASASHAAGITGSRHRTRLFFPSSSGSASTPQEEQTKEGACEDPHDLLATPTPELLLDWRQSAEEVIVKLRVGVGPLQLEDVDAAFTDTDCVVRFAGGQQWGGVFYAEIKSSCAKVQTRKGSLLHLTLPKKVPMLTWPSLLVEADEQLCIPPLNSQTCLLGSEENLAPLAGEKAVPPGNDPVSPAMVRSRNPGKDDCAKEEMAVAADAATLVDEPESMVNLAFVKNDSYEKGPDSVVVHVYVKEICRDTSRVLFREQDFTLIFQTRDGNFLRLHPGCGPHTTFRWQVKLRNLIEPEQCTFCFTASRIDICLRKRQSQRWGGLEAPAARVGGAKVAVPTGPTPLDSTPPGGAPHPLTGQEEARAVEKDKSKARSEDTGLDSVATRTPMEHVTPKPETHLASPKPTCMVPPMPHSPVSGDSVEEEEEEEKKVCLPGFTGLVNLGNTCFMNSVIQSLSNTRELRDFFHDRSFEAEINYNNPLGTGGRLAIGFAVLLRALWKGTHHAFQPSKLKAIVASKASQFTGYAQHDAQEFMAFLLDGLHEDLNRIQNKPYTETVDSDGRPDEVVAEEAWQRHKMRNDSFIVDLFQGQYKSKLVCPVCAKVSITFDPFLYLPVPLPQKQKVLPVFYFAREPHSKPIKFLVSVSKENSTASEVLDSLSQSVHVKPENLRLAEVIKNRFHRVFLPSHSLDTVSPSDTLLCFELLSSELAKERVVVLEVQQRPQVPSVPISKCAACQRKQQSEDEKLKRCTRCYRVGYCNQLCQKTHWPDHKGLCRPENIGYPFLVSVPASRLTYARLAQLLEGYARYSVSVFQPPFQPGRMALESQSPGCTTLLSTGSLEAGDSERDPIQPPELQLVTPMAEGDTGLPRVWAAPDRGPVPSTSGISSEMLASGPIEVGSLPAGERVSRPEAAVPGYQHPSEAMNAHTPQFFIYKIDSSNREQRLEDKGDTPLELGDDCSLALVWRNNERLQEFVLVASKELECAEDPGSAGEAARAGHFTLDQCLNLFTRPEVLAPEEAWYCPQCKQHREASKQLLLWRLPNVLIVQLKRFSFRSFIWRDKINDLVEFPVRNLDLSKFCIGQKEEQLPSYDLYAVINHYGGMIGGHYTACARLPNDRSSQRSDVGWRLFDDSTVTTVDESQVVTRYAYVLFYRRRNSPVERPPRAGHSEHHPDLGPAAEAAASQASRIWQELEAEEEPVPEGSGPLGPWGPQDWVGPLPRGPTTPDEGCLRYFVLGTVAALVALVLNVFYPLVSQSRWR", "values": [{"measurement": "binding", "setting": "3xflag-EWSR1", "result": "binds"}, {"measurement": "binding", "setting": "3xflag-FLI1", "result": "no binding"}]}]}
